According to the supplement of paper PMC8728848:
This is one part of the list.

Legend:
Assay in all cases: glycan array binding signal (z-score within array); higher = stronger binding
Conditions in all cases: glycan notation: IUPAC condensed, linker removed
[1] = biological target: GalNAc(b1-4)GlcNAc(b1-2)Man
Procedure, shortened: (§1)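 The Consortium for Functional Glycomics database supplied 3228 glycan arrays, of which those lacking an available protein sequence were dropped. The binding signal, a within-array Z-score, was averaged across arrays of the same protein sequence and across linkers. Negative scores can be read as non-binding.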

[2] = biological target: GalNAc(b1-4)GlcNAc(b1-2)Man(a1-3)[GalNAc(b1-4)GlcNAc(b1-2)Man(a1-6)]Man(b1-4)GlcNAc(b1-4)GlcNAc
Procedure, shortened: as §1

[3] = biological target: GalNAc(b1-4)GlcNAc(b1-3)GalNAc(b1-4)GlcNAc
Procedure, shortened: as §1

GalNAc(b1-4)GlcNAc6S = biological target: GalNAc(b1-4)GlcNAc6S
Procedure, shortened: as §1

GalNAc(b1-6)GalNAc = biological target: GalNAc(b1-6)GalNAc
Procedure, shortened: as §1

GalNAc3S(b1-4)GlcNAc = biological target: GalNAc3S(b1-4)GlcNAc
Procedure, shortened: as §1

GalNAc3S(b1-4)GlcNAc3S = biological target: GalNAc3S(b1-4)GlcNAc3S
Procedure, shortened: as §1

[4] = biological target: GalNAc3S(b1-4)[Fuc(a1-3)]GlcNAc
Procedure, shortened: as §1

GalNAc4S6S(b1-4)GlcNAc = biological target: GalNAc4S6S(b1-4)GlcNAc
Procedure, shortened: as §1

GalNAc6S(b1-4)GlcNAc = biological target: GalNAc6S(b1-4)GlcNAc
Procedure, shortened: as §1

Glc(a1-4)Glc = biological target: Glc(a1-4)Glc
Procedure, shortened: as §1

[5] = biological target: Glc(a1-4)Glc(a1-4)Glc(a1-4)Glc
Procedure, shortened: as §1

Glc(a1-6)Glc(a1-6)Glc = biological target: Glc(a1-6)Glc(a1-6)Glc
Procedure, shortened: as §1

[6] = biological target: Glc(a1-6)Glc(a1-6)Glc(a1-6)Glc
Procedure, shortened: as §1

Glc(b1-4)Glc = biological target: Glc(b1-4)Glc
Procedure, shortened: as §1

Glc(b1-6)Glc = biological target: Glc(b1-6)Glc
Procedure, shortened: as §1

GlcA(b1-3)Gal = biological target: GlcA(b1-3)Gal
Procedure, shortened: as §1

GlcA(b1-3)GlcNAc = biological target: GlcA(b1-3)GlcNAc
Procedure, shortened: as §1

GlcA(b1-6)Gal = biological target: GlcA(b1-6)Gal
Procedure, shortened: as §1

[7] = biological target: GlcA3S(b1-3)Gal(b1-4)GlcNAc(b1-2)Man
Procedure, shortened: as §1

[8] = biological target: GlcA3S(b1-3)Gal(b1-4)GlcNAc(b1-3)Gal(b1-4)Glc
Procedure, shortened: as §1

[9] = biological target: GlcNAc(a1-3)Gal(b1-4)GlcNAc
Procedure, shortened: as §1

[10] = biological target: GlcNAc(a1-4)Gal(b1-3)GlcNAc
Procedure, shortened: as §1

[11] = biological target: GlcNAc(a1-4)Gal(b1-4)GalNAc
Procedure, shortened: as §1

[12] = biological target: GlcNAc(a1-4)Gal(b1-4)GlcNAc
Procedure, shortened: as §1

[13] = biological target: GlcNAc(a1-4)Gal(b1-4)GlcNAc(b1-3)Gal(b1-4)Glc
Procedure, shortened: as §1

[14] = biological target: GlcNAc(a1-4)Gal(b1-4)GlcNAc(b1-3)Gal(b1-4)GlcNAc
Procedure, shortened: as §1

[15] = biological target: GlcNAc(a1-4)Gal(b1-4)GlcNAc(b1-3)Gal(b1-4)GlcNAc(b1-3)Gal(b1-4)GlcNAc
Procedure, shortened: as §1

[16] = biological target: GlcNAc(a1-4)Gal(b1-4)GlcNAc(b1-3)Gal(b1-4)[Fuc(a1-3)]GlcNAc(b1-3)Gal(b1-4)[Fuc(a1-3)]GlcNAc
Procedure, shortened: as §1

[17] = biological target: GlcNAc(a1-6)Gal(b1-4)GlcNAc
Procedure, shortened: as §1

[18] = biological target: GlcNAc(b1-2)Gal(b1-3)GalNAc
Procedure, shortened: as §1

[19] = biological target: GlcNAc(b1-2)Man(a1-3)[GlcNAc(b1-2)Man(a1-6)]Man(b1-4)GlcNAc(b1-4)GlcNAc
Procedure, shortened: as §1

[20] = biological target: GlcNAc(b1-2)Man(a1-3)[GlcNAc(b1-2)Man(a1-6)]Man(b1-4)GlcNAc(b1-4)[Fuc(a1-6)]GlcNAc
Procedure, shortened: as §1

[21] = biological target: GlcNAc(b1-2)Man(a1-3)[GlcNAc(b1-4)][GlcNAc(b1-2)Man(a1-6)]Man(b1-4)GlcNAc(b1-4)GlcNAc
Procedure, shortened: as §1

[22] = biological target: GlcNAc(b1-2)Man(a1-3)[GlcNAc(b1-4)][GlcNAc(b1-2)Man(a1-6)]Man(b1-4)GlcNAc(b1-4)[Fuc(a1-6)]GlcNAc
Procedure, shortened: as §1

[23] = biological target: GlcNAc(b1-2)[GlcNAc(b1-4)]Man(a1-3)[GlcNAc(b1-2)Man(a1-6)]Man(b1-4)GlcNAc(b1-4)GlcNAc
Procedure, shortened: as §1

[24] = biological target: GlcNAc(b1-2)[GlcNAc(b1-4)]Man(a1-3)[GlcNAc(b1-4)][GlcNAc(b1-2)Man(a1-6)]Man(b1-4)GlcNAc(b1-4)GlcNAc
Procedure, shortened: as §1

B1: SspB A3vp1 (Streptococcus gordonii), Q54186 (protein)
chain: MTNEADYQAKLAAYQTELARVQKANADAKATYEKAVEDNKAKNAAIKAENEEIKQRNAVAKTDYEAKLAKYEADLAKYKKEFAAYTAALAEAESKKKQDGYLSEPRSQSLNFKSEPNAIRTIDSSVHQYGQQELDALVKSWGISPTNPDRKKSRAYSYFNAINSNNTYAKLVLEKDKPVDVTYTGLKNSSFNGKKISKVVYTYTLKETGFNDGTKMTMFASSDPTVTAWYNDYFTSTNINVKVKFYDEEGQLMNLTGGLVNFSSLNRGNGSGAIDKDAIESVRNFNGRYIPISGSSIKIHENNSAYADSSNAEKSLGARWNTSEWDTTSSPNNWYGAIVGEITQSEISFNMASSKSGNIWFAFNSNINAIGVPTKPVAPTAPTQPMYETEKPLEPAPVAPSYENEPTPPVKTPDQPEPSKPAAALEHHHHHH
With B1 the “glycan array binding signal (z-score)” value [1] was -0.385, the “glycan array binding signal (z-score)” value [2] was -0.48 and the “glycan array binding signal (z-score)” value [3] was 1.28. For the same binder, the “glycan array binding signal (z-score)” value (GalNAc(b1-4)GlcNAc6S) was -0.104, the “glycan array binding signal (z-score)” value (GalNAc(b1-6)GalNAc) was 0.292 and the “glycan array binding signal (z-score)” value (GalNAc3S(b1-4)GlcNAc) was -1.32. The “glycan array binding signal (z-score)” value (GalNAc3S(b1-4)GlcNAc3S) was 0.461, the “glycan array binding signal (z-score)” value [4] was -0.301 and the “glycan array binding signal (z-score)” value (GalNAc4S6S(b1-4)GlcNAc) was -0.729. For the same binder, the “glycan array binding signal (z-score)” value (GalNAc6S(b1-4)GlcNAc) was -0.623, the “glycan array binding signal (z-score)” value (Glc(a1-4)Glc) was 0.194 and the “glycan array binding signal (z-score)” value [5] was -0.964. For the same binder, the “glycan array binding signal (z-score)” value (Glc(a1-6)Glc(a1-6)Glc) was -0.421, the “glycan array binding signal (z-score)” value [6] was 0.88 and the “glycan array binding signal (z-score)” value (Glc(b1-4)Glc) was -0.759. For the same binder, the “glycan array binding signal (z-score)” value (Glc(b1-6)Glc) was -0.58, the “glycan array binding signal (z-score)” value (GlcA(b1-3)Gal) was 0.34 and the “glycan array binding signal (z-score)” value (GlcA(b1-3)GlcNAc) was -0.903. For the same binder, the “glycan array binding signal (z-score)” value (GlcA(b1-6)Gal) was -0.084, the “glycan array binding signal (z-score)” value [7] was -1.19 and the “glycan array binding signal (z-score)” value [8] was -1.2. The “glycan array binding signal (z-score)” value [9] was -0.25, the “glycan array binding signal (z-score)” value [10] was -0.98 and the “glycan array binding signal (z-score)” value [11] was 0.655. The “glycan array binding signal (z-score)” value [12] was -0.84, the “glycan array binding signal (z-score)” value [13] was -1.28 and the “glycan array binding signal (z-score)” value [14] was -0.995. For the same binder, the “glycan array binding signal (z-score)” value [15] was -1.01, the “glycan array binding signal (z-score)” value [16] was 1.62 and the “glycan array binding signal (z-score)” value [17] was -0.617. For the same binder, the “glycan array binding signal (z-score)” value [18] was -0.865, the “glycan array binding signal (z-score)” value [19] was -0.445 and the “glycan array binding signal (z-score)” value [20] was 0.426. For the same binder, the “glycan array binding signal (z-score)” value [21] was -0.271, the “glycan array binding signal (z-score)” value [22] was -1.06 and the “glycan array binding signal (z-score)” value [23] was -1.22. The “glycan array binding signal (z-score)” value [24] was -1.19.
